Data as given in PubChem BioAssay AID1259424 (University of Nebraska Medical Center, 2018)

Aim: 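Seek colon cancer survival genes behaving like KSR1, using a six-gene signature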 (primary screen)
System: human HCT116 colon cancer cells
Knock-down reagent: siRNA pool against human genes, 50 nM
Detection: 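Six signature mRNAs by branched-DNA multiplex assay, scaled to two housekeeping genes and non-targeting median, log2; matched to mean KSR1 knockdown profile by Pearson correlation and euclidean distance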
Scale: mean correlation with KSR1 profile and KSR1 correlation: higher = expression change more like KSR1 knockdown; mean distance from KSR1 profile: higher = expression change less like KSR1 knockdown
Here is one part, drawn at random, of about 14,000 deposited reagents. 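Higher correlation or smaller distance means closer resemblance to KSR1 loss; control wells, including KSR1 knockdowns, recur on many plates.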 The record does not give: the time to read-out.

Target gene	mean correlation with KSR1 profile	mean distance from KSR1 profile	KSR1 correlation, replicate 1	KSR1 correlation, replicate 2	KSR1 correlation, replicate 3
SUGT1 (GeneID 10910)	-0.544	3.69	-0.0575	-0.762	-0.562
BICD1 (GeneID 636)	-0.81	1.66	-0.684	-0.793	-0.51
DDA1 (GeneID 79016)	0.811	2.22	0.629	0.791	0.74
CDC50A (GeneID 55754)	-0.0635	1.3	-0.289	-0.56	0.38
PPP1R12A (GeneID 4659)	-0.106	2.36	-0.183	-0.074	-0.188
YJU2B (GeneID 81576)	0.568	3.94	0.559	0.352	0.385
HSPB3 (GeneID 8988)	-0.366	3.49	-0.237	-0.617	-0.364
SLC12A4 (GeneID 6560)	0.472	1.84	0.517	0.337	0.427
TACC3 (GeneID 10460)	-0.701	2.55	-0.704	-0.786	-0.402
SLC2A8 (GeneID 29988)	0.601	1.24	0.56	0.491	0.521
NDST3 (GeneID 9348)	-0.358	2.68	-0.469	0.0461	-0.354
INA (GeneID 9118)	-0.144	1.57	-0.228	0.034	-0.0955
KCNN1 (GeneID 3780)	-0.363	3.03	-0.398	-0.31	-0.33
MS4A6A (GeneID 64231)	-0.0288	1.99	-0.0701	-0.0351	-0.206
LY6H (GeneID 4062)	0.755	1.95	0.72	0.721	0.787
PITPNM3 (GeneID 83394)	0.203	2.06	0.32	0.474	-0.194
NELL2 (GeneID 4753)	-0.0218	1.31	-0.0617	0.322	-0.0285
NAP1L4 (GeneID 4676)	-0.541	2.86	-0.367	-0.519	-0.537
TLK2 (GeneID 11011)	-0.686	2.34	-0.607	-0.689	-0.68
DNAL1 (GeneID 83544)	0.568	1.73	0.303	0.543	0.708
CARD6 (GeneID 84674)	0.0397	1.55	0.185	0.16	0.181
GRIK2 (GeneID 2898)	-0.37	1.93	-0.207	-0.298	-0.806
PAQR6 (GeneID 79957)	0.515	2.24	0.449	0.581	0.551
CEP250 (GeneID 11190)	-0.575	3.37	-0.507	-0.726	-0.461
BAZ1A (GeneID 11177)	-0.174	2.43	-0.0976	-0.289	0.0308
CSTPP1 (GeneID 79096)	-0.258	1.63	-0.136	-0.577	-0.268

3 entries from above, reformatted.
{"Target gene":"SLC2A8 (GeneID 29988)","mean correlation with KSR1 profile":0.601,"mean distance from KSR1 profile":1.24,"KSR1 correlation, replicate 1":0.56,"KSR1 correlation, replicate 2":0.491,"KSR1 correlation, replicate 3":0.521}
{"Target gene":"NDST3 (GeneID 9348)","mean correlation with KSR1 profile":-0.358,"mean distance from KSR1 profile":2.68,"KSR1 correlation, replicate 1":-0.469,"KSR1 correlation, replicate 2":0.0461,"KSR1 correlation, replicate 3":-0.354}
{"Target gene":"INA (GeneID 9118)","mean correlation with KSR1 profile":-0.144,"mean distance from KSR1 profile":1.57,"KSR1 correlation, replicate 1":-0.228,"KSR1 correlation, replicate 2":0.034,"KSR1 correlation, replicate 3":-0.0955}

Continued.
Target gene	mean correlation with KSR1 profile	mean distance from KSR1 profile	KSR1 correlation, replicate 1	KSR1 correlation, replicate 2	KSR1 correlation, replicate 3
SELENOP (GeneID 6414)	0.907	1.3	0.751	0.828	0.847
CDCA4 (GeneID 55038)	-0.225	1.53	-0.25	-0.512	-0.231
STEAP3 (GeneID 55240)	-0.284	1.38	-0.289	-0.284	-0.157
MOSPD3 (GeneID 64598)	-0.359	1.29	-0.433	-0.544	-0.582
SAR1A (GeneID 56681)	0.232	1.93	0.282	0.182	0.284
HRH3 (GeneID 11255)	0.706	2.32	0.722	0.746	0.522
EPHB4 (GeneID 2050)	0.915	1.21	0.812	0.911	0.757
PRCC (GeneID 5546)	-0.153	3.08	-0.126	-0.232	-0.17
FMN2 (GeneID 56776)	-0.584	1.96	-0.674	-0.613	-0.635
CLDN1 (GeneID 9076)	0.562	1.14	0.624	0.364	0.494
MRPS15 (GeneID 64960)	-0.143	2.37	-0.0831	-0.17	-0.292
FADS3 (GeneID 3995)	-0.54	2.69	-0.774	-0.384	-0.296
RAB21 (GeneID 23011)	0.855	0.507	0.814	0.8	0.931
TACR3 (GeneID 6870)	0.981	1.73	0.975	0.971	0.991
CEP72 (GeneID 55722)	0.109	3.68	0.243	-0.0864	0.13
GOLGB1 (GeneID 2804)	0.0601	2.2	0.0584	0.0143	-0.0587
BCCIP (GeneID 56647)	0.494	2.72	0.355	0.373	0.554
SLC13A4 (GeneID 26266)	-0.38	2.15	-0.701	-0.141	-0.225
TTC38 (GeneID 55020)	0.283	1.74	0.405	0.23	0.273
GPR45 (GeneID 11250)	0.614	2.08	0.517	0.685	0.564
CNMD (GeneID 11061)	0.0244	1.36	-0.0293	-0.0505	0.163
TOMM40L (GeneID 84134)	0.79	1.88	0.669	0.854	0.918
NABP2 (GeneID 79035)	0.119	2.17	0.104	-0.16	-0.0324
NPAS2 (GeneID 4862)	-0.529	2.1	-0.648	-0.659	-0.484
